# Measured values reported in PubChem BioAssay AID2685 (National Center for Advancing Translational Sciences (NCATS), 2010).
# Some of the results follow. Further columns of the screen follow, without active or inactive calls. The list favours compounds with an active or inconclusive main result. The note in brackets gives the kind of curve behind each potency; many fits are weak.
# Assay: qHTS Assay for Lipid Storage Modulators in Drosophila S3 Cells;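 for cell number change: cells counted by Cell Tracker Red CMTPX staining in the red channel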
# Details: BODIPY lipid droplet fluorescence, 18-24 h; for cell number change: measured here: cell count max response, cells fed with added oleic acid
# Procedure, shortened: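 Drosophila S3 cells loaded with oleic acid (400 uM, as added) and compounds at several concentrations; lipid droplets imaged by 488-nm laser-scanning cytometry, 500–530 nm intensity and object ratio to cell channel. Percent activity normalized to 20 uM Triacsin C.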
# [1] = measured here: lipid fluorescence (Fed channel) AC50, cells fed with added oleic acid
# [2] = measured here: cell number channel AC50, cells fed with added oleic acid
Compound,cell number change [%],AC50 [1],AC50 [2]
Cc1nc2c(C)cccn2c(=O)c1NC(=O)c1ccc2c(c1)OCO2,7.71,"6.51 µM [falling, single point]",
O=C(NC1CCCc2c1cnn2-c1ccccc1F)c1ccccn1 (centres undefined),,"0.259 µM [falling, full curve, poor fit]","0.116 µM [falling, full curve, poor fit]"
COc1ccccc1NC(=S)NNC(=O)c1ccccc1Br,,"2.06 µM [rising, partial curve]",
CCC(C(=O)NCc1ccco1)n1nc(C)c2c(C)n(-c3ccccc3)nc2c1=O (centres undefined),4.42,"2.06 µM [rising, partial curve]",
Cc1cc(C)nc(N2N=C(CSc3ccc(Cl)cc3)CC2=O)n1,26.3,"1.46 µM [rising, full curve, poor fit]","1.64 µM [rising, full curve, poor fit]"
CC1CCN(C(=O)c2ccc(S(=O)(=O)N3CCOCC3)cc2)CC1,-23,"2.31 µM [falling, partial curve, poor fit]",
CCCc1cc(C(=O)Nc2cc(C)ccc2O)no1,17.5,"0.164 µM [rising, single point]",
Cc1c(C(=O)N2CCc3ccccc3C2)oc2ccccc12,-6.01,"3.26 µM [falling, full curve, poor fit]",
Cc1ccc(NC(=O)Nc2cccnc2)cc1Cl,3.64,"0.00651 µM [rising, full curve, poor fit]",
O=C(CCCN1C(=O)/C(=C\c2cccc(Br)c2)SC1=S)Nc1cccnc1,-24.1,"29.1 µM [falling, single point]",
O=C(NC1CCSc2ccccc21)c1ccc(F)c(S(=O)(=O)N2CCOCC2)c1 (centres undefined),1.62,"18.4 µM [rising, single point]",
CCc1nn(C(C)C(=O)Nc2cccc(C)c2C)c(=O)c2cc3occc3n12 (centres undefined),52.8,"0.184 µM [rising, partial curve]","0.00517 µM [rising, full curve, poor fit]"
CC(C)c1nnc(NC(=O)c2ccc3c(c2)OCO3)s1,-8.24,"2.06 µM [falling, partial curve]",
COCCCNS(=O)(=O)c1ccc2[nH]c(=O)[nH]c2c1,10.9,,
COc1cc(NC(=O)c2cc3ccccc3cc2OC)ccc1NC(=O)c1cccs1,-45.5,"2.59 µM [falling, full curve]","8.2 µM [falling, partial curve]"
N#CC[C@H](Cc1ccccc1)N1CCN(Cc2ccccc2)CCC1=O,0.299,,
NC(N)=N/N=C/c1ccc(OCc2ccccc2Cl)cc1,-78.2,,"29.1 µM [falling, single point]"
Cc1c(N)c(C(C)(C)C)cc(C(C)(C)C)c1[N+](=O)[O-],-32.2,"23.1 µM [falling, single point]","18.4 µM [falling, single point]"
Cc1ccc(SCCNC(=O)CN(c2ccc3c(c2)OCO3)S(C)(=O)=O)cc1,62.6,"29.1 µM [rising, single point]","20.6 µM [rising, partial curve]"
N#C/C(=C\c1ccc(OC(=O)c2ccc(Br)s2)cc1)c1nc2ccccc2[nH]1,8.62,,

Compound,cell number change [%],AC50 [1],AC50 [2]
CCCCOc1ccc(C(=O)NC(=S)Nc2ccc(CN3CCOCC3)cc2)cc1,22.5,"2.31 µM [rising, full curve, poor fit]","1.64 µM [rising, full curve, poor fit]"
Cc1ccc(-c2cc(C(=O)Nc3ccc(S(=O)(=O)Nc4cc(C)on4)cc3)c3ccccc3n2)c(C)c1,-25.7,"29.1 µM [falling, single point]",
CCC(C)NC(=O)/C=C/c1ccc(S(=O)(=O)NCc2ccco2)cc1 (centres undefined),5.91,,
CN(C1CCS(=O)(=O)C1)S(=O)(=O)c1ccccc1 (centres undefined),-45.7,"4.11 µM [rising, single point]","29.1 µM [falling, single point]"
CCOCCOc1nc(C)cc(C)c1S(=O)(=O)c1ccccc1C,,"20.6 µM [rising, single point]",
Cn1c(N)c(C(=O)COC(=O)COc2ccc(Br)cc2)c(=O)n(C)c1=O,-40.8,"20.6 µM [rising, partial curve, poor fit]","32.6 µM [falling, single point]"
CCOC(=O)C1CCN(C(=O)c2cc3c(s2)-c2ccccc2OC3)CC1,-4.9,"1.3 µM [rising, full curve, poor fit]",
O=C(CC12CC3CC(CC(C3)C1)C2)N1CCOCC1,-36.8,"3.66 µM [falling, full curve]","1.3 µM [falling, full curve]"
CC(C)Oc1ccc(S(=O)(=O)N2CCOCC2)cc1NC(=O)C1=NN(c2ccccc2)C(=O)CC1,,"6.51 µM [falling, single point]","6.51 µM [rising, single point]"
Cc1ccccc1C(=O)O/N=C(\N)c1ccc([N+](=O)[O-])cc1,5.47,"32.6 µM [rising, single point]",
C/C(CCN1CCCCc2nc(C)c(C)cc21)=N\O[C@@H](C)c1cn([C@H](CO)Cc2ccccc2)nn1,,"0.058 µM [falling, full curve, poor fit]",
Cc1ccc(NCC(=O)Nc2c(C)n(C)n(-c3ccccc3)c2=O)cc1S(=O)(=O)N(C)C,-7.58,,
Cc1ccc(NC(=O)CSc2nc(=O)n3cc(C)ccc3n2)c(C)c1,35.3,,"0.164 µM [rising, full curve]"
COc1ccc2c(CC(=O)N3CCN(S(=O)(=O)c4ccc(F)cc4)CC3)coc2c1,-2.33,"29.1 µM [rising, single point]",
CCOc1ccc(C2NC(=O)NC(C)=C2[N+](=O)[O-])cc1OC (centres undefined),0.815,"3.26 µM [falling, single point]",
O=C(NC(Nc1nc2ccccc2s1)(C(F)(F)F)C(F)(F)F)c1ccccc1,20.2,"6.51 µM [rising, single point]",
CCOC(=O)C1=C(C)NC(=S)NC1C (centres undefined),-74.3,,"32.6 µM [falling, partial curve, poor fit]"
CCc1cc2c(=O)c(-c3nc(C)cs3)coc2cc1O,17.3,"29.1 µM [rising, single point]",
CC(NC(=O)CN1CCN(Cc2cccc(F)c2)CC1)c1ccccc1 (centres undefined),-34.8,,"6.51 µM [falling, full curve, poor fit]"
O=C(c1cc(=O)c2ccccc2o1)N1CCN(c2ccccc2)CC1,,"0.731 µM [rising, partial curve, poor fit]",

# Given as tab-separated lines: part of the list above
Compound	cell number change [%]	AC50 [1]	AC50 [2]
CCC(C)NC(=O)/C=C/c1ccc(S(=O)(=O)NCc2ccco2)cc1 (centres undefined)	5.91		
CCOCCOc1nc(C)cc(C)c1S(=O)(=O)c1ccccc1C		20.6 µM [rising, single point]	
C/C(CCN1CCCCc2nc(C)c(C)cc21)=N\O[C@@H](C)c1cn([C@H](CO)Cc2ccccc2)nn1		0.058 µM [falling, full curve, poor fit]	
CCOc1ccc(C2NC(=O)NC(C)=C2[N+](=O)[O-])cc1OC (centres undefined)	0.815	3.26 µM [falling, single point]	

# Remaining list, next part:

Compound,cell number change [%],AC50 [1],AC50 [2]
S=C(Nc1ccc(Br)cc1)NC1CCCC1,,"29.1 µM [falling, single point]",
CN1/C(=C/C2CC(=O)NC2=O)C(C)(C)c2ccccc21 (centres undefined),47.4,,"29.1 µM [rising, single point]"
CC(=O)NCCC(=O)Nc1nc2c(ccc3ccccc32)s1,42.3,"29.1 µM [falling, single point]","0.13 µM [rising, full curve, poor fit]"
CCOc1ccc(/C=C2/Sc3ccc(C(=O)NCC4CCCO4)cc3N(C)C2=O)cc1OC (centres undefined),-15.7,"3.66 µM [falling, full curve]",
Cc1ccc(C(=O)c2ccccc2C(=O)OCC(=O)Nc2cccc([N+](=O)[O-])c2)cc1,-11.4,"5.8 µM [rising, partial curve]",
COc1ccc(C2C(C#N)=C(N)Nc3onc(C(C)(C)C)c32)c(OC)c1 (centres undefined),-1.22,"0.731 µM [falling, full curve, poor fit]",
O=C(O)c1ccc(CSc2nnc(-c3ccccc3Br)o2)cc1,36.5,,
C/C(=N\OC(=O)c1ccc(OC(C)C)cc1)c1ccc(C)c(C)c1,80.5,"0.231 µM [falling, full curve, poor fit]","18.4 µM [rising, single point]"
Cc1sc(NC(=S)NC(=O)c2ccco2)c(C#N)c1C,-10.7,,"0.116 µM [falling, full curve, poor fit]"
Cc1cc(C(=O)Nc2nnc(C(F)(F)F)s2)no1,,,"5.17 µM [falling, single point]"
CCOC(=O)c1nn(-c2ccc3c(c2)OCO3)cc1O,-9.29,"25.9 µM [rising, single point]",
O=C(CCc1n[nH]c(=O)[nH]c1=O)N/N=C/c1ccc(Br)o1,-21.6,"16.4 µM [falling, single point]",
O=C(Nc1ccc(F)cc1)C1CCN(c2ncnc3c2nc2n3CCCCC2)CC1,15.6,,
COc1ccc(Cl)cc1NC(=O)CSc1nnc(C)c(=O)n1N,7.92,"18.4 µM [rising, single point]",
CCCCOc1ccccc1C(=O)NCCCC(=O)O,34.9,"20.6 µM [rising, single point]","14.6 µM [rising, single point]"
COC(=O)CCS(=O)(=O)c1ccc(Cl)cc1,35,,"29.1 µM [rising, single point]"
C[C@@H](C(=O)Nc1ccc2ccccc2c1)[C@H]1C[C@]1(C)[C@H](NS(=O)(=O)c1ccccc1)c1ccccc1,-2.04,,
COC(=O)/C(=C1/Oc2ccc(C(C)(C)C)cc2S1)C(F)(F)F,-0.0822,"2.91 µM [falling, partial curve, poor fit]",
